# Measured values published in patent US20160074420A1, “ORAL B12 THERAPY” (Emisphere Technologies, Inc., priority 2010, published 2016).
# Some of these results come from one statement about several compounds together.
# Experiment: Open label randomized study: serum cobalamin (B12) levels in subjects with mild vitamin B12 deficiency
# Assay type: in vivo, human
# Details: mildly B12 deficient subjects
# Protocol: In this study, the efficacy and safety of the oral vitamin B12 formulation (1 mg) of the present invention and intramuscular (IM) cyanocobalamin (1 mg) were evaluated in subjects with mild vitamin B12 deficiency.
# This was an open-label, randomized 60-day study, with a 30-day extension, conducted in B12 deficient subjects. Subjects were assigned to a treatment according to a randomization schedule prepared by a statistician at the start of the study. The randomization scheme was stratified such that a balanced number of males and females were assigned to each treatment group. Subjects were randomized to receive either a 1000 μg oral tablet, administered once daily for 90 days or 1000 μg cyanocobalamin, administered IM on Days 1, 3, 7, 10, 14, 21, 30, 60 and 90. […]
# Serum cobalamin (B12) levels were determined by a validated microparticle enzyme immunoassay (MEIA) detection method with a calibration range of 100-2000 pg/mL. […] Serum MMA levels were determined by a validated LC/MS/MS method with a calibration range of 5-200 ng/mL. Plasma HC levels were determined by a validated fluorescence polarization immunoassay (FIPA) detection method with a calibration range of 2.5-50 μmol/L; and plasma holotranscobalamin (active B12) levels were determined using a validated MEIA method, with a calibration range of 8-128 pmol/L. Sample dilution procedures were validated up to 32-fold dilution. […]
substance,measurement,value
cyanocobalamin [IM B12],time to cobalamin normalization (350 pg/mL) in all subjects,≤ 15 days
